Experimental data as given in the supplement of paper PMC10849652.
The other results are listed elsewhere or left out. Residues, ends and D or L forms follow the SMILES beside them. *: point of attachment. Cbz = O=C(OCc1ccccc1)*

Sequences of proteins named here, by UniProt entry; tags and fusion partners are left off. A change or cut given only in a name is not applied to a line headed by its entry.
UniProt Q92530: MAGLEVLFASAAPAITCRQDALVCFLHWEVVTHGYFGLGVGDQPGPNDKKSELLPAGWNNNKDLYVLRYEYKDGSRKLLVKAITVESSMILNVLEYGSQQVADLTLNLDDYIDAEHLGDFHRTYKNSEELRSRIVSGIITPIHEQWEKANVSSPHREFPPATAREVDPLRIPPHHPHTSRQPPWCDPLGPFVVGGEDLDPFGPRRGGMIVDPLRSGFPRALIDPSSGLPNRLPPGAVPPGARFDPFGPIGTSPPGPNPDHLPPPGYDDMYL
UniProt O95758: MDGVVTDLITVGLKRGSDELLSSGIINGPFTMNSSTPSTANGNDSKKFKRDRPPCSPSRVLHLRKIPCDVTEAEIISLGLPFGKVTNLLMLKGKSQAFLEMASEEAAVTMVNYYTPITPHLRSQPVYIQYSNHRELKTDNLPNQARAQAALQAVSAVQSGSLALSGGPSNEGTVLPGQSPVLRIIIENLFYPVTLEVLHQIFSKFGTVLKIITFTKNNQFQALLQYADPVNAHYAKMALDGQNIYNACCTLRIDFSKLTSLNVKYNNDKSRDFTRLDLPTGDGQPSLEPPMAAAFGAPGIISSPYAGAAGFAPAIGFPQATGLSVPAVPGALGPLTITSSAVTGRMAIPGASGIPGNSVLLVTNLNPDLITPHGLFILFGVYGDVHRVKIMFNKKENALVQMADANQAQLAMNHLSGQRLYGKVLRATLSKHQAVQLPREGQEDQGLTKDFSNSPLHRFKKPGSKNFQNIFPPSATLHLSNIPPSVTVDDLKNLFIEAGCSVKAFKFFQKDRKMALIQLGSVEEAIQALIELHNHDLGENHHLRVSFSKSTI
UniProt Q969U7: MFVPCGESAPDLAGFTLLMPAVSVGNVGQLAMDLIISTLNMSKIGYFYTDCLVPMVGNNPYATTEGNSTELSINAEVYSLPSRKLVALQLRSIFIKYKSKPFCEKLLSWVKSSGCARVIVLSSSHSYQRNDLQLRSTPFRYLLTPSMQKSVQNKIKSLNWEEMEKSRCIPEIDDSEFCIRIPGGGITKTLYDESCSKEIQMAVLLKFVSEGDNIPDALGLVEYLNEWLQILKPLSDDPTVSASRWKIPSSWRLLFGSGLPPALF
UniProt Q96BW5: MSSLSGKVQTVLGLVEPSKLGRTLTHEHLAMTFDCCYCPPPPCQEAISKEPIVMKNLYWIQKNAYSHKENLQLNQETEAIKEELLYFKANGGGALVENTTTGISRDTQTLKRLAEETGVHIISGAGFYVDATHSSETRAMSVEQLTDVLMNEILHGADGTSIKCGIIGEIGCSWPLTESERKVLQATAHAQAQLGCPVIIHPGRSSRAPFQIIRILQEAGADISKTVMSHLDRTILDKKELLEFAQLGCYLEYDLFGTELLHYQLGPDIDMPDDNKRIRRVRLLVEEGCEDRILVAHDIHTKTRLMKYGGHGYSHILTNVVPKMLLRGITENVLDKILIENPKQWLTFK
UniProt P26599: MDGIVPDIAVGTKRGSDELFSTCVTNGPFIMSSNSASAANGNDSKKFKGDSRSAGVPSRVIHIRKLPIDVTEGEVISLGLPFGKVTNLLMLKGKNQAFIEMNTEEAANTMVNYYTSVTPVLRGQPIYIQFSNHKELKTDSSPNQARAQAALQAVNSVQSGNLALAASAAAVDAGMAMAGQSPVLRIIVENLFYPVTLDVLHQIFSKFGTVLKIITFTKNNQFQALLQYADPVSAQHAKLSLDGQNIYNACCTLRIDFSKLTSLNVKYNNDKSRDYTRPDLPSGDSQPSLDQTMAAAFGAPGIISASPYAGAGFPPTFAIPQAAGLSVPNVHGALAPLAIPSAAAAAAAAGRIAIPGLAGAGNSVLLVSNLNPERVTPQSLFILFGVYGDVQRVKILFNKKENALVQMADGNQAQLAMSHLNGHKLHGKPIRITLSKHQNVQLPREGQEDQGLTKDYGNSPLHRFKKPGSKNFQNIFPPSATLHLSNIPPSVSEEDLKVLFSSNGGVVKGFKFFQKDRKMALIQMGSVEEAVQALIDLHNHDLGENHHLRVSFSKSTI
UniProt Q9Y6I8: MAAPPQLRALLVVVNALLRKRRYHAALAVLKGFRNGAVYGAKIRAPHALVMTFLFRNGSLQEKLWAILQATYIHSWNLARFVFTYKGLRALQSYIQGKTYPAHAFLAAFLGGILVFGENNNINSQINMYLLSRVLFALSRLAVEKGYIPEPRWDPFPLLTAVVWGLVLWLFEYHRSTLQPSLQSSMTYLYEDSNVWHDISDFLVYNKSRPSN
UniProt Q08623: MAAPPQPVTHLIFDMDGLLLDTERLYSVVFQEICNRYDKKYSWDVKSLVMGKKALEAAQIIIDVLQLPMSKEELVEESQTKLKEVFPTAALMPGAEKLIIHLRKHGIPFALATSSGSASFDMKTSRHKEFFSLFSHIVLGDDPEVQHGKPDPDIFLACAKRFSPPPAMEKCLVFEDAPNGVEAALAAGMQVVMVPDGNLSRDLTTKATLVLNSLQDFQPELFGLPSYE
UniProt O95456: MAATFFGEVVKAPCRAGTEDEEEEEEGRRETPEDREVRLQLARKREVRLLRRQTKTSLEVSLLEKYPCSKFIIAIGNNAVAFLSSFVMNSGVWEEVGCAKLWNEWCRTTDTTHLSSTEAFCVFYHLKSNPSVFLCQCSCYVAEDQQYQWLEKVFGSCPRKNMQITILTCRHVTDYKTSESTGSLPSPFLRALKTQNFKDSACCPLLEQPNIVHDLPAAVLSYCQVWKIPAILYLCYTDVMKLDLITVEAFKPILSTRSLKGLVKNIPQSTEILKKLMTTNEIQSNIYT
UniProt P47897: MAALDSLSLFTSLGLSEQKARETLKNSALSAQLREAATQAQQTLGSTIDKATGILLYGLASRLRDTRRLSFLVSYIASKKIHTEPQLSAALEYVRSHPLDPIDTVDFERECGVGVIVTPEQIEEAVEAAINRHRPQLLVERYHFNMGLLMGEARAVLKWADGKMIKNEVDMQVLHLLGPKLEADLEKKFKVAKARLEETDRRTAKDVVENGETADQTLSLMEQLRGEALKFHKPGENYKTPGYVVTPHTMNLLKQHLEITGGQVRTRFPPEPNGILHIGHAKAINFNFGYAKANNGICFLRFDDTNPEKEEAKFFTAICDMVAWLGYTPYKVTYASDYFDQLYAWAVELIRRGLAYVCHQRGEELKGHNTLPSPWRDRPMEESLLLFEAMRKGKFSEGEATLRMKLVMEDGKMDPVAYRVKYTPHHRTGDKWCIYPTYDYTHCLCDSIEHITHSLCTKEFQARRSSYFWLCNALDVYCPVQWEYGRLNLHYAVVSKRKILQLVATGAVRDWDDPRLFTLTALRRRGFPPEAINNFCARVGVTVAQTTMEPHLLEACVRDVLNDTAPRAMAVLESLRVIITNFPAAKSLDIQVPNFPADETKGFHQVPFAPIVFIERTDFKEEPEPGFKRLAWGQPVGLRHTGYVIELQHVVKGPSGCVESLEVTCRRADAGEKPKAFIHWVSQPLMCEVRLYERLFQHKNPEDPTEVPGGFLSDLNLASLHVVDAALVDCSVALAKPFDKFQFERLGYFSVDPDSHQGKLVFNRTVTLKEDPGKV
UniProt Q05397, whole entry, looked up: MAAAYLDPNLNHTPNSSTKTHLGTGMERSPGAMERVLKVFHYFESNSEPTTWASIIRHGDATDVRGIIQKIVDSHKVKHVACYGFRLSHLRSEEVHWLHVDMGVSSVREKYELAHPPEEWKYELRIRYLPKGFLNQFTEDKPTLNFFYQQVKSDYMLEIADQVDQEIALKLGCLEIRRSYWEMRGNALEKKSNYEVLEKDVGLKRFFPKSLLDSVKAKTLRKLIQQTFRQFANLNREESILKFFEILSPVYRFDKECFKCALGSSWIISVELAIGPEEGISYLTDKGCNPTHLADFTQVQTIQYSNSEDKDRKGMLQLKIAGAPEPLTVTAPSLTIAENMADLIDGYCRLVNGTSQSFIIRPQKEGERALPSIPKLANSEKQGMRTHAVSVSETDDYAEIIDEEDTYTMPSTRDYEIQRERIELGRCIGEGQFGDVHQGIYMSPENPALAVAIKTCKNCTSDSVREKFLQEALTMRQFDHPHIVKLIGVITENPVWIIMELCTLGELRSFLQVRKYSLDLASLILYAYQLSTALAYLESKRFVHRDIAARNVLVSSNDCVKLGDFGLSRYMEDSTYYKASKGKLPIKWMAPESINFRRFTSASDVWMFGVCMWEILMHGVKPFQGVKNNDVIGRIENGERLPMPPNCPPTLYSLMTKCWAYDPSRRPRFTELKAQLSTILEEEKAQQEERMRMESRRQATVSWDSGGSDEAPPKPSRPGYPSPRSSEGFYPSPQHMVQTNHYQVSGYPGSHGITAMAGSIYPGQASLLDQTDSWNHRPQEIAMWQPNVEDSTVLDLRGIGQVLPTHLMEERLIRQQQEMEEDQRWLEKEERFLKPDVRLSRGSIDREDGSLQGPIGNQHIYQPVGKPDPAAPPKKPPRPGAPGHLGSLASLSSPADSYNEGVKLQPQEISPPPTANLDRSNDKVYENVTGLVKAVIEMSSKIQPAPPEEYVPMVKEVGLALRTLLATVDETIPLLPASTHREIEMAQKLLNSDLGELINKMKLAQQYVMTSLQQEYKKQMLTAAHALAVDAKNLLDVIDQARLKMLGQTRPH
UniProt P28074: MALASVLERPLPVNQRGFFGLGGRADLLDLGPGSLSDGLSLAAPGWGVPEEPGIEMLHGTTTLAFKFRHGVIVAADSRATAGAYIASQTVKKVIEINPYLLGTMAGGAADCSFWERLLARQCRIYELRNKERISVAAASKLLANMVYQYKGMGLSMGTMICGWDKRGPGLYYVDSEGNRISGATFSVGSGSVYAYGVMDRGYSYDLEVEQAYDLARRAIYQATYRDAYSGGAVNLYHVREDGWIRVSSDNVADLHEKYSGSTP
UniProt Q9Y617: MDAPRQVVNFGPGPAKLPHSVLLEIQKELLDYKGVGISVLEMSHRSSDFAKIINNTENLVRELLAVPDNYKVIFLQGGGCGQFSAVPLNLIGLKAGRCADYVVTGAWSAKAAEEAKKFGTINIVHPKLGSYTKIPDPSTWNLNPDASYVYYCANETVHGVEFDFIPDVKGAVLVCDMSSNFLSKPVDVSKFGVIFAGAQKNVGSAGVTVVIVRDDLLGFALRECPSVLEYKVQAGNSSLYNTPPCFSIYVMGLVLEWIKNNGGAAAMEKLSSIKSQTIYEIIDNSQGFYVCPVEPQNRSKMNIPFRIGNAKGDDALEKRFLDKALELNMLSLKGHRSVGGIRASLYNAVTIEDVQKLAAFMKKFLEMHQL
UniProt P61289: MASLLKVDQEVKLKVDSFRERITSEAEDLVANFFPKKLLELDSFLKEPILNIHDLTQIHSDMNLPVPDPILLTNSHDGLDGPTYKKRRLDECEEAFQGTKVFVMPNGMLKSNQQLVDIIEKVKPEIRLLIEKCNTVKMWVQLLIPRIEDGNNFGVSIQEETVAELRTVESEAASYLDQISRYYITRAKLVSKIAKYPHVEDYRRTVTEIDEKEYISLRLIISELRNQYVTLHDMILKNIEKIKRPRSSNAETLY
UniProt Q9H7Z7: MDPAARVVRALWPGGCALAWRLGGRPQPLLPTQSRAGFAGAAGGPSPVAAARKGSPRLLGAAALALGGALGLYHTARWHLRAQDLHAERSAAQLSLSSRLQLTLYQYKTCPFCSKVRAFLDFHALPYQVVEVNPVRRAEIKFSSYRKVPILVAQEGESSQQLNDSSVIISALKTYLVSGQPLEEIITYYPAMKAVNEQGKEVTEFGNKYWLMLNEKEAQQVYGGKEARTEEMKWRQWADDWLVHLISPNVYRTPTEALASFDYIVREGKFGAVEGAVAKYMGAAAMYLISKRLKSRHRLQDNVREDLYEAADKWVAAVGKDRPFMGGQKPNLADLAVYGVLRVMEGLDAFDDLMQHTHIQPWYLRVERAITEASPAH

Legend:
Assay in all cases: log2 fold change, soluble protein after heating vs DMSO (PISA); higher = thermal stabilisation; K562 cells, 10 uM, 30 min; active = over 0.2 and 3.5 SD of the protein, either way, in both replicates (recomputed)
erlotinib = compound: C#Cc1cccc(Nc2ncnc3cc(OCCOC)c(OCCOC)cc23)c1 [erlotinib]
Outline: (§1)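 K562 cells at 2×10^6 cells/mL were given 10 μM compound for 30 min. Aliquots then went through 3 min of heating across 48°C-58°C, were pooled, and were extracted in PBS with 0.5% NP-40 at 4°C, and the supernatant after 21,000xg for 90 min was quantified by TMTpro 16plex LC-MS/MS with channel sums equalised. Thermal stability relative to control samples, from duplicates, is given as log2 fold change.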

[1] = compound: C/C(=N\NC(=O)C1=CC(=CC=C1)S(=O)(=O)N2CCOCC2)/C3=C(C=CC(=C3)Cl)O
Outline: as §1

[2] = compound: C1=CC(=C(C=C1Cl)C2=NC3=NC=CN=C3C(=N2)NC4=CC=NC=C4)F
Outline: as §1

[3] = compound: C1=CC(=CC=C1C2=NC3=C(N2)C=C(C=C3)C(=O)N)OC4=CC=C(C=C4)Cl
Outline: as §1

[4] = compound: C1=CC2=C(C=CC(=C2)/C=C\3/C(=O)NC(=NCC4=CC=CS4)S3)N=C1
Outline: as §1

[5] = compound: C1=CC2=NC=CN=C2C=C1/C=C/3\C(=O)NC(=O)S3
Outline: as §1

[6] = compound: C1=CC=C(C=C1)C2=NC(=C(N2)C3=CC=NC=C3)C4=CC(=C(C=C4)Cl)O
Outline: as §1

[7] = compound: C1=CC=C2C(=C1)C3=NNC4=CC=CC(=C43)C2=O
Outline: as §1

[8] = compound: C1CCN(C1)C(=O)NC2=CC=CC(=C2)NC3=NC=C(C(=N3)NCCC4=CN=CN4)Br
Outline: as §1

[9] = compound: C1CN(CCC1(CC2=CC=C(C=C2)Cl)N)C3=NC=NC4=C3C=CN4
Outline: as §1

IRAK-1-4 Inhibitor I = compound: C1COCCN1CCN2C3=CC=CC=C3N=C2NC(=O)C4=CC(=CC=C4)[N+](=O)[O-] [IRAK-1-4 Inhibitor I]
Outline: as §1

ibrutinib = compound: C=CC(=O)N1CCC[C@@H](n2nc(-c3ccc(Oc4ccccc4)cc3)c3c(N)ncnc32)C1 [ibrutinib]
Outline: as §1

[10] = compound: CC(=O)c1cnc2ccc(-c3cc(Cl)c(O)c(Cl)c3)nc2c1N[C@H]1CC[C@H](CN(C)C)CC1
Outline: as §1

ralimetinib = compound: CC(C)(C)Cn1c(N)nc2ccc(-c3[nH]c(C(C)(C)C)nc3-c3ccc(F)cc3)nc21 [ralimetinib]
Outline: as §1

[11] = compound: CC(C)(O)CC(=O)NCCn1ccc2ncnc(Nc3ccc(Oc4cccc(C(F)(F)F)c4)c(Cl)c3)c21
Outline: as §1

[12] = compound: CC(C)C1=C2N=C(C=C(N2N=C1)NCC3=CC=CC=C3)NCCCCCCN
Outline: as §1

[13] = compound: CC(C)C[C@@H](C=O)NC(=O)[C@H](CC(C)C)NC(=O)[C@H](CC(C)C)NC(=O)OCc1ccccc1
Outline: as §1

pinometostat = compound: CC(C)N(C[C@H]1O[C@@H](n2cnc3c(N)ncnc32)[C@H](O)[C@@H]1O)[C@H]1C[C@@H](CCc2nc3cc(C(C)(C)C)ccc3[nH]2)C1 [pinometostat]
Outline: as §1

[14] = compound: CC1=C(C(CC(=O)N1)C2=CC=C(C=C2)C(F)(F)F)C(=O)NC3=C(C=C4C(=C3)C=NN4)F
Outline: as §1

[15] = compound: CC1=C(C2=C(C=C1)C(=O)C3=CC=CC=C3N2CCCN)C
Outline: as §1

Measured: log2 fold change

PSMF1 (UniProt Q92530)
inactive: erlotinib 0.083 | [1] 0.002 | [2] -0.013 | [3] -0.012 | [4] 0.099 | [5] -0.012 | [6] 0.02 | [7] -0.007 | [8] 0.061 | [9] 0.027 | IRAK-1-4 Inhibitor I 0.057 | ibrutinib 0.004 | [10] -0.015 | ralimetinib -0.014 | [11] 0 | [12] 0.02 | [13] -0.008 | pinometostat -0.047 | [14] 0.016 | [15] 0.026

PTBP3 isoform 4 (UniProt O95758)
inactive: erlotinib -0.037 | [1] 0.061 | [2] 0.007 | [3] 0.007 | [4] 0.015 | [5] -0.002 | [6] -0.018 | [7] 0.018 | [8] -0.032 | [9] 0.031 | IRAK-1-4 Inhibitor I -0.066 | ibrutinib -0.009 | [10] -0.021 | ralimetinib 0.031 | [11] -0.025 | [12] -0.152 | [13] 0.004 | pinometostat -0.047 | [14] -0.031 | [15] 0.148

PSMG2 (UniProt Q969U7)
inactive: erlotinib -0.031 | [1] 0.025 | [2] 0.047 | [3] -0.02 | [4] 0 | [5] 0.02 | [6] -0.064 | [7] 0.039 | [8] -0.01 | [9] 0.016 | IRAK-1-4 Inhibitor I 0.071 | ibrutinib 0.002 | [10] -0.001 | ralimetinib 0.001 | [11] -0.001 | [12] 0.028 | [13] -0.014 | pinometostat -0.021 | [14] 0.034 | [15] 0.015

PTER (UniProt Q96BW5)
inactive: erlotinib -0.001 | [1] -0.013 | [2] 0.035 | [3] 0.034 | [4] -0.024 | [5] 0.007 | [6] -0.019 | [7] -0.022 | [8] 0.013 | [9] 0.04 | IRAK-1-4 Inhibitor I 0.027 | ibrutinib -0.018 | [10] 0.04 | ralimetinib -0.031 | [11] -0.02 | [12] 0.059 | [13] -0.085 | pinometostat -0.088 | [14] 0.025 | [15] 0.005

PTBP1 (UniProt P26599)
inactive: erlotinib -0.01 | [1] 0.077 | [2] -0.061 | [3] 0.008 | [4] 0.031 | [5] -0.035 | [6] 0.054 | [7] -0.017 | [8] -0.046 | [9] 0.03 | IRAK-1-4 Inhibitor I -0.051 | ibrutinib 0.047 | [10] -0.053 | ralimetinib 0.098 | [11] -0.026 | [12] -0.131 | [13] 0.008 | pinometostat -0.056 | [14] -0.031 | [15] 0.119

PXMP4 (UniProt Q9Y6I8)
inactive: erlotinib -0.001 | [1] 0.097 | [2] 0.018 | [3] 0.006 | [4] 0.013 | [5] -0.038 | [6] -0.009 | [7] 0.1 | [8] -0.033 | [9] 0.018 | IRAK-1-4 Inhibitor I 0.039 | ibrutinib 0.066 | [10] -0.039 | ralimetinib -0.077 | [11] -0.003 | [12] 0.039 | [13] -0.011 | pinometostat 0.136 | [14] -0.02 | [15] 0.076

PUDP isoform 4 (UniProt Q08623)
inactive: erlotinib 0.022 | [1] 0.067 | [2] 0.049 | [3] 0.034 | [4] -0.041 | [5] -0.011 | [6] 0.079 | [7] 0.022 | [8] -0.041 | [9] 0.035 | IRAK-1-4 Inhibitor I 0.045 | ibrutinib -0.006 | [10] 0.056 | ralimetinib 0.024 | [11] -0.034 | [12] 0.066 | [13] -0.094 | pinometostat -0.098 | [14] -0.036 | [15] 0.023

PSMG1 (UniProt O95456)
inactive: erlotinib -0.005 | [1] 0.014 | [2] 0.11 | [3] -0.009 | [4] -0.056 | [5] 0.003 | [6] 0.017 | [7] -0.042 | [8] 0.022 | [9] 0.014 | IRAK-1-4 Inhibitor I 0.023 | ibrutinib 0.019 | [10] -0.014 | ralimetinib -0.023 | [11] 0.023 | [12] 0.077 | [13] -0.064 | pinometostat -0.039 | [14] 0.064 | [15] 0.006

QARS (UniProt P47897)
inactive: erlotinib 0.054 | [1] -0.015 | [2] -0.541 | [3] -0.007 | [4] 0.018 | [5] 0.021 | [6] -0.055 | [7] 0.023 | [8] 0.073 | [9] -0.177 | IRAK-1-4 Inhibitor I -0.16 | ibrutinib 0.066 | [10] 0.252 | ralimetinib 0.264 | [11] 0.038 | [12] -0.278 | [13] 0.232 | pinometostat 0.521 | [14] -0.013 | [15] -0.058

PTK2 (UniProt Q05397)
inactive: erlotinib 0.101 | [1] 0.01 | [2] 0.006 | [3] -0.041 | [4] 0.005 | [5] 0.01 | [6] -0.022 | [7] 0.025 | [8] 0.057 | [9] 0.002 | IRAK-1-4 Inhibitor I 0.001 | ibrutinib -0.014 | [10] 0.103 | ralimetinib -0.05 | [11] -0.029 | [12] -0.122 | [13] 0.006 | pinometostat -0.027 | [14] 0.003 | [15] 0.051

PTPN11 isoform 1 (UniProt Q06124)
inactive: erlotinib -0.024 | [1] 0.021 | [2] 0.088 | [3] 0.013 | [4] 0.022 | [5] 0.038 | [6] -0.019 | [7] -0.002 | [8] -0.001 | [9] 0.044 | IRAK-1-4 Inhibitor I -0.009 | ibrutinib -0.004 | [10] -0.03 | ralimetinib -0.059 | [11] -0.035 | [12] 0.014 | [13] 0.025 | pinometostat -0.033 | [14] -0.028 | [15] 0.014

Two consecutive entries from above, quoted:
QARS (UniProt P47897)
inactive: erlotinib 0.054 | [1] -0.015 | [2] -0.541 | [3] -0.007 | [4] 0.018 | [5] 0.021 | [6] -0.055 | [7] 0.023 | [8] 0.073 | [9] -0.177 | IRAK-1-4 Inhibitor I -0.16 | ibrutinib 0.066 | [10] 0.252 | ralimetinib 0.264 | [11] 0.038 | [12] -0.278 | [13] 0.232 | pinometostat 0.521 | [14] -0.013 | [15] -0.058

PTK2 (UniProt Q05397)
inactive: erlotinib 0.101 | [1] 0.01 | [2] 0.006 | [3] -0.041 | [4] 0.005 | [5] 0.01 | [6] -0.022 | [7] 0.025 | [8] 0.057 | [9] 0.002 | IRAK-1-4 Inhibitor I 0.001 | ibrutinib -0.014 | [10] 0.103 | ralimetinib -0.05 | [11] -0.029 | [12] -0.122 | [13] 0.006 | pinometostat -0.027 | [14] 0.003 | [15] 0.051

Later entries:

PSMB5 (UniProt P28074)
inactive: erlotinib -0.095 | [1] -0.026 | [2] 0.065 | [3] 0.002 | [4] -0.037 | [5] -0.046 | [6] 0.026 | [7] -0.01 | [8] -0.014 | [9] 0.041 | IRAK-1-4 Inhibitor I -0.006 | ibrutinib -0.011 | [10] 0.04 | ralimetinib 0.022 | [11] 0.02 | [12] 0.059 | [13] -0.133 | pinometostat -0.009 | [14] -0.028 | [15] 0.009

PSAT1 (UniProt Q9Y617)
inactive: erlotinib -0.051 | [1] -0.008 | [2] 0.035 | [3] 0.011 | [4] -0.038 | [5] 0.012 | [6] -0.035 | [7] -0.039 | [8] 0.005 | [9] 0.055 | IRAK-1-4 Inhibitor I 0.038 | ibrutinib 0.011 | [10] 0.006 | ralimetinib -0.037 | [11] 0.006 | [12] 0.055 | [13] -0.014 | pinometostat -0.042 | [14] 0.021 | [15] -0.025

PWP1 (UniProt Q13610)
inactive: erlotinib -0.201 | [1] -0.183 | [2] -0.541 | [3] 0.079 | [4] -0.132 | [5] 0.028 | [6] -0.043 | [7] -0.029 | [8] 0.001 | [9] -0.217 | IRAK-1-4 Inhibitor I -0.21 | ibrutinib 0.132 | [10] 0.299 | ralimetinib 0.277 | [11] 0.084 | [12] -0.099 | [13] 0.063 | pinometostat 0.418 | [14] 0.081 | [15] -0.891

PSME3 isoform 2 (UniProt P61289)
inactive: erlotinib 0.011 | [1] 0.005 | [2] 0.023 | [3] -0.015 | [4] -0.07 | [5] 0.024 | [6] 0.026 | [7] -0.017 | [8] 0.015 | [9] 0.034 | IRAK-1-4 Inhibitor I 0.059 | ibrutinib 0.007 | [10] -0.017 | ralimetinib -0.003 | [11] 0.03 | [12] 0.065 | [13] -0.031 | pinometostat -0.034 | [14] 0.015 | [15] -0.035

PTGES2 (UniProt Q9H7Z7)
inactive: erlotinib 0.009 | [1] 0.046 | [2] 0.027 | [3] -0.002 | [4] 0.007 | [5] 0.016 | [6] 0.02 | [7] 0.012 | [8] 0.006 | [9] 0.033 | IRAK-1-4 Inhibitor I 0.034 | ibrutinib 0.025 | [10] -0.006 | ralimetinib -0.043 | [11] 0.035 | [12] -0.02 | [13] 0.021 | pinometostat -0.067 | [14] -0.024 | [15] -0.002
